PubChem BioAssay AID1671195 | Yale University – 2021
Here is one part, drawn at random, of about 22,000 reagents tested. About 1,510 of them (6.9%) count as active. 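Active includes knockdowns raising or lowering LDL uptake; positive z-scores mean more uptake, negative mean less.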 No sequences are given here.

Assay: 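Genes whose knockdown alters LDL uptake in liver cancer cells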 (primary screen)
System: human Huh7 hepatoma cells
Reagents: siRNA pool against human genes, 18 nM
Time to read-out: about 2 to 2.5 days of knockdown, then 8 h LDL uptake
Challenge: DiI-labelled LDL at 30 µg/ml for 8 h, in lipoprotein-deficient serum medium
Read-out: 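Fluorescent LDL signal imaged in cells, scaled to the plate median, robust z-score for each replicate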
Scale: robust z-score: higher = more LDL uptake after knockdown
Rule for the call: 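a gene counts as active if at least two replicate z-scores exceed ±2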

For BEND4 (BEN domain containing 4), the values are robust z-score, replicate 1 = 1.91; robust z-score, replicate 2 = 1.5; robust z-score, replicate 3 = 1.29; inactive.
For AGBL3 (AGBL carboxypeptidase 3), the entry reads robust z-score, replicate 1 = -0.277; robust z-score, replicate 2 = -0.0975; robust z-score, replicate 3 = 0.0229; inactive.
For BTNL3 (butyrophilin like 3), the values are robust z-score, replicate 1 = 3.21; robust z-score, replicate 2 = 2.64; robust z-score, replicate 3 = 2.78; active.
Against GUCA1A (guanylate cyclase activator 1A), the values are robust z-score, replicate 1 = 0.149; robust z-score, replicate 2 = 2.61; robust z-score, replicate 3 = 0.152; inactive.
With knock-down of RBBP8 (RB binding protein 8, endonuclease) the results were robust z-score, replicate 1 = 1.1; robust z-score, replicate 2 = 0.501; robust z-score, replicate 3 = 0.601; inactive.
For ITPR2 (inositol 1,4,5-trisphosphate receptor type 2), the entry reads robust z-score, replicate 1 = 0.719; robust z-score, replicate 2 = 0.74; robust z-score, replicate 3 = 0.0814; inactive.
RPL3 (ribosomal protein L3) gave robust z-score, replicate 1 = -1.74; robust z-score, replicate 2 = -1.32; robust z-score, replicate 3 = -1.76; inactive.
TRIM37 (tripartite motif containing 37) scored robust z-score, replicate 1 = 0.243; robust z-score, replicate 2 = 1.17; robust z-score, replicate 3 = 2.44; inactive.
Depletion of TMEM53 (transmembrane protein 53) resulted in: robust z-score, replicate 1 = 0.179; robust z-score, replicate 2 = 0.441; robust z-score, replicate 3 = 0.033; inactive.
LINC00654 (long independently transcribed non-coding RNA 654) gave robust z-score, replicate 1 = -0.367; robust z-score, replicate 2 = -1.17; robust z-score, replicate 3 = 0.316; inactive.
NRARP (NOTCH regulated ankyrin repeat protein) gave robust z-score, replicate 1 = 0.897; robust z-score, replicate 2 = 0.24; robust z-score, replicate 3 = 0.0276; inactive.
For SEC31B (SEC31 homolog B, COPII component) the deposit lists robust z-score, replicate 1 = 0.772; robust z-score, replicate 2 = 1.03; robust z-score, replicate 3 = -0.438; inactive.
Silencing of FBXO47 (F-box protein 47) came out at: robust z-score, replicate 1 = -0.98; robust z-score, replicate 2 = -1.72; robust z-score, replicate 3 = -1.4; inactive.
Depletion of HHEX (hematopoietically expressed homeobox) resulted in: robust z-score, replicate 1 = -0.847; robust z-score, replicate 2 = -0.0629; robust z-score, replicate 3 = 0.291; inactive.

Laid out differently: results already given
RPL3 (ribosomal protein L3)
- robust z-score, replicate 1: -1.74
- robust z-score, replicate 2: -1.32
- robust z-score, replicate 3: -1.76
- Call: inactive

TRIM37 (tripartite motif containing 37)
- robust z-score, replicate 1: 0.243
- robust z-score, replicate 2: 1.17
- robust z-score, replicate 3: 2.44
- Call: inactive

The results go on:
TRPV6 showed robust z-score, replicate 1 = 0.0691; robust z-score, replicate 2 = -0.286; robust z-score, replicate 3 = -0.148; inactive.
TPRX1 (tetrapeptide repeat homeobox 1) showed robust z-score, replicate 1 = -0.911; robust z-score, replicate 2 = -1.28; robust z-score, replicate 3 = -1.22; inactive.
Against SLC33A1, the entry reads robust z-score, replicate 1 = 0.0194; robust z-score, replicate 2 = -0.0547; robust z-score, replicate 3 = -0.597; inactive.
IL18R1 (interleukin 18 receptor 1) showed robust z-score, replicate 1 = 0.773; robust z-score, replicate 2 = 0.781; robust z-score, replicate 3 = 0.792; inactive.
ODF4 (outer dense fiber of sperm tails 4) scored robust z-score, replicate 1 = -0.154; robust z-score, replicate 2 = 0.254; robust z-score, replicate 3 = -0.503; inactive.
Depletion of POFUT4 (protein O-fucosyltransferase 4) came out at: robust z-score, replicate 1 = 0.238; robust z-score, replicate 2 = -0.0898; robust z-score, replicate 3 = 0.435; inactive.
TDRP (testis development related protein) scored robust z-score, replicate 1 = -1.33; robust z-score, replicate 2 = -1.85; robust z-score, replicate 3 = -1.3; inactive.
For TSPAN18 (tetraspanin 18), the entry reads robust z-score, replicate 1 = -1.46; robust z-score, replicate 2 = -1.69; robust z-score, replicate 3 = -0.582; inactive.
F8 (coagulation factor VIII) scored robust z-score, replicate 1 = -2.42; robust z-score, replicate 2 = -2.04; robust z-score, replicate 3 = -2.05; active.
After knock-down of ORAI2 (ORAI calcium release-activated calcium modulator 2) the results were robust z-score, replicate 1 = 0.451; robust z-score, replicate 2 = 0.21; robust z-score, replicate 3 = -0.459; inactive.
After knock-down of OPN4 (opsin 4), the record shows robust z-score, replicate 1 = 1.55; robust z-score, replicate 2 = 1.46; robust z-score, replicate 3 = 2.45; inactive.
Against CIMIP4 (ciliary microtubule inner protein 4), the values are robust z-score, replicate 1 = 2.73; robust z-score, replicate 2 = 2.97; robust z-score, replicate 3 = 1.96; active.
Silencing of RMDN1 (regulator of microtubule dynamics 1) came out at: robust z-score, replicate 1 = -0.559; robust z-score, replicate 2 = -1.23; robust z-score, replicate 3 = -0.158; inactive.
For SCN2A (sodium voltage-gated channel alpha subunit 2), the entry reads robust z-score, replicate 1 = -0.902; robust z-score, replicate 2 = -1.1; robust z-score, replicate 3 = -0.552; inactive.
Against COQ3 (coenzyme Q3, methyltransferase), the entry reads robust z-score, replicate 1 = -3.01; robust z-score, replicate 2 = 0.557; robust z-score, replicate 3 = 0.048; inactive.
After knock-down of NEK9 (NIMA related kinase 9) the results were robust z-score, replicate 1 = 1.01; robust z-score, replicate 2 = 0.56; robust z-score, replicate 3 = 0.986; inactive.
